Test results from paper PMC9776721.
No constants are given. Whether binding was seen depends on the method and setting. Binding seen in cells or lysates may run through a third protein. Some results given as binding are weak or reduced against the parent protein; the word gives no strength.

By UniProt entry, the sequences of proteins in these tests, tags left out.
UniProt P00519: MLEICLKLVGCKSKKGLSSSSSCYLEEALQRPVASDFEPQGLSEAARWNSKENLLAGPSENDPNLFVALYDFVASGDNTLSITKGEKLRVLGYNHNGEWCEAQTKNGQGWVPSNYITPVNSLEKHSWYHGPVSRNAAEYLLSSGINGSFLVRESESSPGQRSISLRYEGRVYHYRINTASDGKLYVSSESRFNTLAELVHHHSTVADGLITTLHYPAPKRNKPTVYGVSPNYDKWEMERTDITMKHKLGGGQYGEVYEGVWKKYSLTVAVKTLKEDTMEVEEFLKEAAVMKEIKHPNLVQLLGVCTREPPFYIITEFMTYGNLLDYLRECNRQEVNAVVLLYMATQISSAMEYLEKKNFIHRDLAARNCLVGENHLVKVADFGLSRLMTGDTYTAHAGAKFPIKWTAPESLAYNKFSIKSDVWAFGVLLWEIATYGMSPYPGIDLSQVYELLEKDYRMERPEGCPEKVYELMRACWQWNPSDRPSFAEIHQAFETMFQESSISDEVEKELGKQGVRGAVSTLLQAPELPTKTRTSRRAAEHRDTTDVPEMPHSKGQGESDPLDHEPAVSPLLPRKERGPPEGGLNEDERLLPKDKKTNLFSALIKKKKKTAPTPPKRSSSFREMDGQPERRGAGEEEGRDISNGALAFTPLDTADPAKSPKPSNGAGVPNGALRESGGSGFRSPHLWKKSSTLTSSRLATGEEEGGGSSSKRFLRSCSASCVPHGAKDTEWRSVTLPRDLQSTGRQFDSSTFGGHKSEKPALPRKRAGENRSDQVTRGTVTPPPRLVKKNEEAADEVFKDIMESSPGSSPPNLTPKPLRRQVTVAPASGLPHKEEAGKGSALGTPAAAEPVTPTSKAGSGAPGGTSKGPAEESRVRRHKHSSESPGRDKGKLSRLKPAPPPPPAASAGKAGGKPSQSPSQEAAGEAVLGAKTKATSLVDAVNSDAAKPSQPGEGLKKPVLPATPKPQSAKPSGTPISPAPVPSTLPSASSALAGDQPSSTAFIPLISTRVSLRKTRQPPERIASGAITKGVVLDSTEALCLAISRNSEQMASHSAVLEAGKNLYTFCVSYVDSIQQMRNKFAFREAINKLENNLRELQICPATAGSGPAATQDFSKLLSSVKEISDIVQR

Biological target: Flag-tagged c-Abl (UniProt P00519)
Experiment: co-IP; SH-SY5Y cells co-transfected with Flag-c-Abl and EGFP-TDP-43; cell extracts 24 h after transfection, anti-Flag (M2) antibody at 4 °C, protein G-agarose beads overnight, washed five times with lysis buffer, immunoblotting

binding: binds
Substance: EGFP-tagged TDP-43 (from UniProt Q13148-1 1-414)
